Our source for the log2 fold change values is the supplement of paper PMC10849652.

Chains of the proteins cited; added tags and fusions are not shown. Lines headed by an entry give the natural chain unless they say otherwise; changes in a name come on top.
UniProt P05976, whole entry, looked up: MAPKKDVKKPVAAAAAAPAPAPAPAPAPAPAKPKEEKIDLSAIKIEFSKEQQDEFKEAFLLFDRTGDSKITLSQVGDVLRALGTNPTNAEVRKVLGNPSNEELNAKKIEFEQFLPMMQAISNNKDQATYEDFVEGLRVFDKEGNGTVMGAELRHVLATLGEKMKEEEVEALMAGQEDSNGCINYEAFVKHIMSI
UniProt Q9Y2Z2: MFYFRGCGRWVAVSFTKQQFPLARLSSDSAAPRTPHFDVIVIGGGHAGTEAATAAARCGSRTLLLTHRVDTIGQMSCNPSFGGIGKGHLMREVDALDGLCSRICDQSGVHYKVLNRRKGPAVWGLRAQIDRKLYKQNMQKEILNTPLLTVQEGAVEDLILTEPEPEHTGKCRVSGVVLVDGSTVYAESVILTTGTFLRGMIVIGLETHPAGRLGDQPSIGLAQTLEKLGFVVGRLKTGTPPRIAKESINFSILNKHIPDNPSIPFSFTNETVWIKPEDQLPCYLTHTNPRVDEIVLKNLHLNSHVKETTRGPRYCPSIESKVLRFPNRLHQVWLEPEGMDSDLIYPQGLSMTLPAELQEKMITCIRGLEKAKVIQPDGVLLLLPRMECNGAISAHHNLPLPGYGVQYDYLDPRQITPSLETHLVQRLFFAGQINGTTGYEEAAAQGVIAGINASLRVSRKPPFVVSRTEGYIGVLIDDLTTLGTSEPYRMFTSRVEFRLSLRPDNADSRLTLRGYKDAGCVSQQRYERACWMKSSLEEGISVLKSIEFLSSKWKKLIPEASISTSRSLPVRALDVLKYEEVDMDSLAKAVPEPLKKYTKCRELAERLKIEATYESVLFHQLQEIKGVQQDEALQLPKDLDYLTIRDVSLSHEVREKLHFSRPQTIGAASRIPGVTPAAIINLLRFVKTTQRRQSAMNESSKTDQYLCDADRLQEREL
UniProt Q8TAX7: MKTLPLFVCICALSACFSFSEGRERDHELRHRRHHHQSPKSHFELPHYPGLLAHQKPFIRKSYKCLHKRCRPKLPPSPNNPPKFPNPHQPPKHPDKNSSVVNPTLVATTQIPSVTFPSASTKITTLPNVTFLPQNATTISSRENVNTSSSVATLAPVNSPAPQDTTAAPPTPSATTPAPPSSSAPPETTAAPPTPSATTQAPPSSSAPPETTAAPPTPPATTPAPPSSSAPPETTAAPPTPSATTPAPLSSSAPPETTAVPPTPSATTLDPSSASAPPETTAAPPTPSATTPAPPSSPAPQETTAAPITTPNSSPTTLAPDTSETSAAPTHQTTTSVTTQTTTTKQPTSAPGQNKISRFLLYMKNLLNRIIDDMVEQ
UniProt Q9H2K0, whole entry, looked up: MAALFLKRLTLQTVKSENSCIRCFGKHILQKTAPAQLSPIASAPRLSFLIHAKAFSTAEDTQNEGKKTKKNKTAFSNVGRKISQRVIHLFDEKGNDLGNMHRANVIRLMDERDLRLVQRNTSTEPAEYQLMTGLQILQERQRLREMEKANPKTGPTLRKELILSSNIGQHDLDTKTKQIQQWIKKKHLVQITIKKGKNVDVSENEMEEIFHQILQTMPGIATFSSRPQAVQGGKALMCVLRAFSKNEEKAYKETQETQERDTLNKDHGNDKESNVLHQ
UniProt O75570: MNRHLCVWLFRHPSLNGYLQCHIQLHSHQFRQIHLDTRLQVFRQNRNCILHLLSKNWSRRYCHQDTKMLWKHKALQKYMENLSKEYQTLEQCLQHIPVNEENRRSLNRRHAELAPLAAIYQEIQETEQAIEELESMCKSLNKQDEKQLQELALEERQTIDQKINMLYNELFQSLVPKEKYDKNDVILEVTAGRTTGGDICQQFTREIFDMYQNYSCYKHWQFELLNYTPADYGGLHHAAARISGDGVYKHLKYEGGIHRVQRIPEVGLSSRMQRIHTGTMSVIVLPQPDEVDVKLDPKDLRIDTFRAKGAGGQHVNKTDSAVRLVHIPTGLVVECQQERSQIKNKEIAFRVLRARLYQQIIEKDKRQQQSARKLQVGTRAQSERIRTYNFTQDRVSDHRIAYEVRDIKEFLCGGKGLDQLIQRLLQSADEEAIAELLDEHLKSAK
UniProt Q15746, whole entry, looked up: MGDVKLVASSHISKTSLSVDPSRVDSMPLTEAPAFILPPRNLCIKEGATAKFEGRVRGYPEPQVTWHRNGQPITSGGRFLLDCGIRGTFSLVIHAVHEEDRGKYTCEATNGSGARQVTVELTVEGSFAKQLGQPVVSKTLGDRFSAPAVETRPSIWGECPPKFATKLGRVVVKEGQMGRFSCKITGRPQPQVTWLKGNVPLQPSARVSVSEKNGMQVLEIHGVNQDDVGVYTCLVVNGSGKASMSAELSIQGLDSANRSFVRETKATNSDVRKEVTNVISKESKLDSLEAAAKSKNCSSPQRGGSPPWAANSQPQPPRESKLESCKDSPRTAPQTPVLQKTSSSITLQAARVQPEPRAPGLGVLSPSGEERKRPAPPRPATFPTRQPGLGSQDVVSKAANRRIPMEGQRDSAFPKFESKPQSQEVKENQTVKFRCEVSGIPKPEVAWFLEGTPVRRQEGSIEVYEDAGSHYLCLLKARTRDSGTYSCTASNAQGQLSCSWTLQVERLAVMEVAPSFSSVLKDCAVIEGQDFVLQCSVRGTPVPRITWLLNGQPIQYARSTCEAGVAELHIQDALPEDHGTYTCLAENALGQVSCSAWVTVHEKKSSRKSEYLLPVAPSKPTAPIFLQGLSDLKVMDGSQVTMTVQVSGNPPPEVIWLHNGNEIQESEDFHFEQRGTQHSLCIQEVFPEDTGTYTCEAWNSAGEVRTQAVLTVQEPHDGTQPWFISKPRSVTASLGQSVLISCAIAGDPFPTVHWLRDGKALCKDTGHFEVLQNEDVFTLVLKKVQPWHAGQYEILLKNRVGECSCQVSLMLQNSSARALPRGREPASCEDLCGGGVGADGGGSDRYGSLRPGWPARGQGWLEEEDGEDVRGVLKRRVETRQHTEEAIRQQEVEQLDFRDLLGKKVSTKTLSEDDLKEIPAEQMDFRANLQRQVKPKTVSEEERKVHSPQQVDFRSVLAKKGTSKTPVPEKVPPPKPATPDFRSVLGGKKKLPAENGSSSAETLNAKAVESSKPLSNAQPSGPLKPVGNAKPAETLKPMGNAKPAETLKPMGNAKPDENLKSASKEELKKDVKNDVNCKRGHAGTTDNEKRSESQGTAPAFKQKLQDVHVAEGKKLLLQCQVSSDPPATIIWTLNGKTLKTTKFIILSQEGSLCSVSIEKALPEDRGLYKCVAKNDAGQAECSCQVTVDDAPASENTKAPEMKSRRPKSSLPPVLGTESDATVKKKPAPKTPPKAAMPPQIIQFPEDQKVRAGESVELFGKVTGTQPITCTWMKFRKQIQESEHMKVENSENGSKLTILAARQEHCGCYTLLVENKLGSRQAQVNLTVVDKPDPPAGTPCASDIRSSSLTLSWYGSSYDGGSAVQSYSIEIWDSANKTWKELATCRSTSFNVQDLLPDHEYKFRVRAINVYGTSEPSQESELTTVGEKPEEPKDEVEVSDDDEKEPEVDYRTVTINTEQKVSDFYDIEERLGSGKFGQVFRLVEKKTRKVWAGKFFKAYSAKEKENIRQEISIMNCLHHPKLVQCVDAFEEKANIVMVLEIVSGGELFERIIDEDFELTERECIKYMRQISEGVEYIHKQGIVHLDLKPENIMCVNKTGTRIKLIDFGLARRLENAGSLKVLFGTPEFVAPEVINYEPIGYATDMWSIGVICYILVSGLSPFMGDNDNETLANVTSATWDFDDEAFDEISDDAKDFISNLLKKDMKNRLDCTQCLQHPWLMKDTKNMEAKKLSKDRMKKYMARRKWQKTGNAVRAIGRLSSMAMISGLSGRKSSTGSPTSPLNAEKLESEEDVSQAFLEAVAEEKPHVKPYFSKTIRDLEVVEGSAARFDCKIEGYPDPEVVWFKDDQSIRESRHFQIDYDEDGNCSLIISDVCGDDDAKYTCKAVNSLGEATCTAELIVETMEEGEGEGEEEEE
UniProt P53602: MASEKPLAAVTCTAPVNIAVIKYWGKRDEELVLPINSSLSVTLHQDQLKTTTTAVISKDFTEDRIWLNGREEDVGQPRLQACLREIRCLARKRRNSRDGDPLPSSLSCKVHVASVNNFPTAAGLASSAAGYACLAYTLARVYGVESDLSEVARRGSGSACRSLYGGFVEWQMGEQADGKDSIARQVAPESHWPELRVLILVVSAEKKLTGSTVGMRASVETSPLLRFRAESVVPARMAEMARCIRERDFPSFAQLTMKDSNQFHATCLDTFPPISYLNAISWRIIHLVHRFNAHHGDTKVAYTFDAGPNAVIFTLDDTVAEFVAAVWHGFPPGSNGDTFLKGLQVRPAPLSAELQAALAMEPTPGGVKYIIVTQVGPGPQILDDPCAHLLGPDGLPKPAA
UniProt O43312: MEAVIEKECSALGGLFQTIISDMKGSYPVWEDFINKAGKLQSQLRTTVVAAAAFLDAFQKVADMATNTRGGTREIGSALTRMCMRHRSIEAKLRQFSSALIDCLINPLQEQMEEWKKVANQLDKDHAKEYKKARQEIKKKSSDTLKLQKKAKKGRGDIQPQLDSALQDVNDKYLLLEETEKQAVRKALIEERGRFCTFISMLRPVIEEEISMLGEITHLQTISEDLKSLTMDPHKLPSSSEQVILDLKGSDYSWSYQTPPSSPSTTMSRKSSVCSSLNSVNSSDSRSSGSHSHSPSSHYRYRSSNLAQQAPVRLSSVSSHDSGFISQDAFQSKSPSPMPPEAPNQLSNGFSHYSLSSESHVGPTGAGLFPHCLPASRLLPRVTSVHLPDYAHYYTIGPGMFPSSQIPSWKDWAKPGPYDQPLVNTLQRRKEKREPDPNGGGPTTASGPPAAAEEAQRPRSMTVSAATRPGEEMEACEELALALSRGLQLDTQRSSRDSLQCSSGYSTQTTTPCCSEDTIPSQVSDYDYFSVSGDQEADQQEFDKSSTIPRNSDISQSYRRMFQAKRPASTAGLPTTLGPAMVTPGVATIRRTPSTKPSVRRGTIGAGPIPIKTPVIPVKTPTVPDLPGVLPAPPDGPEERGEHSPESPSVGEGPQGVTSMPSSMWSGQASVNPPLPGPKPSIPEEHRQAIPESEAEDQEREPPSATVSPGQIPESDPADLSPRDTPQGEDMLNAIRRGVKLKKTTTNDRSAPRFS

The list shows a part of the results. Residues, ends and D or L forms follow the SMILES beside them. *: point of attachment. Cbz = O=C(OCc1ccccc1)*

Holding throughout (experiment): log2 fold change, soluble protein after heating vs DMSO (PISA); higher = thermal stabilisation; K562 cells, 10 uM, 30 min; active = over 0.2 and 3.5 SD of the protein, either way, in both replicates (recomputed)
Compound in one experiment: C=CC(=O)N1CCC[C@@H](n2nc(-c3ccc(Oc4ccccc4)cc3)c3c(N)ncnc32)C1 [ibrutinib]
The gist of the method: (§1)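 K562 cells (2×10^6 cells/mL) were treated with 10 μM compound for 30 min, and aliquots were heated for 3 min over 48°C-58°C. Pooled aliquots were extracted in PBS with 0.5% NP-40 at 4°C, and the supernatant after 21,000xg for 90 min was measured by TMTpro 16plex LC-MS/MS with channel sums equalised. Reported thermal stability, relative to control samples and from duplicates, is a log2 fold change.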

Compound in experiment [1]: CC1=C(C(CC(=O)N1)C2=CC=C(C=C2)C(F)(F)F)C(=O)NC3=C(C=C4C(=C3)C=NN4)F
The gist of the method: as §1

Compound in experiment [2]: CC1=C(C=C(C=C1)NC(=O)C2=CC(=CC=C2)C(C)(C)C#N)NC3=CC4=C(C=C3)N=CN(C4=O)C
The gist of the method: as §1

Compound in experiment [3]: CCCc1cc(C)[nH]c(=O)c1CNC(=O)c1cc(-c2ccnc(N3CCN(C)CC3)c2)cc2c1cnn2C(C)C
The gist of the method: as §1

Compound in another experiment: CCN(CCCOc1ccc2c(Nc3cc(CC(=O)Nc4cccc(F)c4)[nH]n3)ncnc2c1)CCOP(=O)(O)O [barasertib]
The gist of the method: as §1

Compound in another experiment: C1COCCN1CCN2C3=CC=CC=C3N=C2NC(=O)C4=CC(=CC=C4)[N+](=O)[O-] [IRAK-1-4 Inhibitor I]
The gist of the method: as §1

Compound in experiment [4]: CC(=O)c1cnc2ccc(-c3cc(Cl)c(O)c(Cl)c3)nc2c1N[C@H]1CC[C@H](CN(C)C)CC1
The gist of the method:
as §1

Compound in the next experiment: CC(C)(C)Cn1c(N)nc2ccc(-c3[nH]c(C(C)(C)C)nc3-c3ccc(F)cc3)nc21 [ralimetinib]
The gist of the method: as §1

Compound in experiment [5]: CC(C)(O)CC(=O)NCCn1ccc2ncnc(Nc3ccc(Oc4cccc(C(F)(F)F)c4)c(Cl)c3)c21
The gist of the method: as §1

Compound in experiment [6]: CC(C)C1=C2N=C(C=C(N2N=C1)NCC3=CC=CC=C3)NCCCCCCN
The gist of the method:
as §1

Compound in experiment [7]: CC(C)C[C@@H](C=O)NC(=O)[C@H](CC(C)C)NC(=O)[C@H](CC(C)C)NC(=O)OCc1ccccc1
The gist of the method: as §1

Compound in another experiment: CC(C)N(C[C@H]1O[C@@H](n2cnc3c(N)ncnc32)[C@H](O)[C@@H]1O)[C@H]1C[C@@H](CCc2nc3cc(C(C)(C)C)ccc3[nH]2)C1 [pinometostat]
The gist of the method: as §1

Compound in experiment [8]: CC1=C(C2=C(C=C1)C(=O)C3=CC=CC=C3N2CCCN)C
The gist of the method: as §1

Compound in experiment [9]: CC1=C(C=C(C=C1)NC(=O)C2=CC(=CC=C2)N(C)C)NC(=O)C3=CC=C(C=C3)O
The gist of the method:
as §1

Compound in experiment [10]: CC1=CC=C(C=C1)SC2=C3C=C(SC3=CN=C2)C(=O)N
The gist of the method: as §1

Compound in experiment [11]: CC1=NC(=CC=C1)C2=C(N=C(N2)C(C)(C)C)C3=CC4=NC=CN=C4C=C3
The gist of the method:
as §1

Compound in another experiment: CCCCN(Cc1ccc(C(=O)NO)cc1)C(=O)Nc1ccccc1 [Nexturastat A]
The gist of the method: as §1

Compound in the next experiment: CCCS(=O)(=O)Nc1ccc(F)c(C(=O)c2c[nH]c3ncc(-c4ccc(Cl)cc4)cc23)c1F [vemurafenib]
The gist of the method: as §1

Compound in experiment [12]: CCCS(=O)(=O)Nc1ccc(F)c(C(=O)c2c[nH]c3ncc(Cl)cc23)c1F
The gist of the method: as §1

Compound in the next experiment: CCN(CC)Cc1ccc2cc(COC(=O)Nc3ccc(C(=O)NO)cc3)ccc2c1 [givinostat]
The gist of the method: as §1

MYH15 (UniProt Q9Y2K3): the log2 fold change in the experiment with ibrutinib was inactive: 0.763; in experiment [1], inactive: -0.117; in experiment [2] it was inactive: 0.081; in experiment [3], inactive: -0.138; with barasertib, inactive: 0.113.

Regarding MYL1 (UniProt P05976), the values for the log2 fold change in the experiment with ibrutinib and with barasertib were inactive: 0.002 and inactive: -0.053, respectively.

Take MTO1 isoform 6 (UniProt Q9Y2Z2): the log2 fold change was inactive: -0.011 with IRAK-1-4 Inhibitor I; inactive: -0.051 in [4]; inactive: -0.004 with ralimetinib; inactive: -0.125 in [5]; inactive: -0.044 in experiment [6]; inactive: 0.07 in [7]. The log2 fold change with pinometostat is inactive: 0.104; in [1] it was inactive: 0.007; in experiment [8] it was inactive: 0.095; in experiment [2], inactive: -0.142; in [9], inactive: -0.021; in experiment [10], inactive: 0.033. Also, the log2 fold change is inactive: -0.092 in experiment [11]; inactive: 0.142 with Nexturastat A; inactive: 0.019 with vemurafenib; inactive: -0.002 in [12]; inactive: 0.099 in experiment [3]; inactive: 0.048 with givinostat.

Consider MUC7 (UniProt Q8TAX7), for which the log2 fold change with ibrutinib was inactive: 0.113; with ralimetinib, inactive: -0.167; in experiment [5], inactive: 0.115; in experiment [7], inactive: 0.486; in experiment [1] it was inactive: 0.034; in experiment [2] it was inactive: -0.186. Moreover, the results for the log2 fold change (in experiment [9]; in the experiment with Nexturastat A; with barasertib) were inactive: -0.269, inactive: 0.293 and inactive: 0.27, respectively.

MTIF3 (UniProt Q9H2K0): the log2 fold change with ibrutinib is inactive: 0.113; in experiment [4], inactive: 0.047; in [5], inactive: -0.046; in experiment [6], inactive: -0.057; in experiment [1], inactive: -0.021; in experiment [2], inactive: 0.01. The log2 fold change with Nexturastat A is inactive: 0.134; with vemurafenib, inactive: 0.071; in the experiment with givinostat it was inactive: 0; with barasertib it was inactive: -0.305.

MTRF1 (UniProt O75570): the results for the log2 fold change in experiment [4] and in [2] were inactive: 0.023 and inactive: -0.05, respectively.

Consider MYLK (UniProt Q15746), for which the log2 fold change is inactive: -0.051 with IRAK-1-4 Inhibitor I; inactive: -0.101 with ibrutinib; inactive: 0.524 with ralimetinib; inactive: -0.207 in experiment [6]; inactive: -0.181 in experiment [7]; inactive: -0.051 with pinometostat. In addition, the log2 fold change is inactive: -0.136 in [8]; active: 0.832 in [2]; inactive: 0.108 in [9]; inactive: -0.013 in experiment [10]; inactive: 0.202 in [11]; inactive: 0.081 with vemurafenib. Besides, the log2 fold change in experiment [12] was inactive: -0.01; in experiment [3], inactive: -0.154; with givinostat, inactive: -0.132; in the experiment with barasertib it was inactive: 0.032.

MVD (UniProt P53602): the log2 fold change with ibrutinib is inactive: 0.006; in [4] it was inactive: -0.043; in the experiment with ralimetinib, inactive: -0.003; in experiment [5], inactive: -0.013; in [6], inactive: 0.003; in [7], inactive: -0.021. For the same target, the log2 fold change in the experiment with pinometostat was inactive: -0.007; in [1] it was inactive: -0.014; in experiment [8], inactive: 0.065; in experiment [2] it was inactive: 0.01; in [9], inactive: -0.007; in experiment [10], inactive: 0.03. For the same target, the log2 fold change in experiment [11] is inactive: 0.02; with Nexturastat A, inactive: -0.074; in the experiment with vemurafenib, inactive: 0.038; in experiment [12], inactive: 0.058; in [3], inactive: 0.015; with givinostat, inactive: -0.033. Also, in the experiment with barasertib, the log2 fold change is inactive: 0.044.

For the target MTSS1 isoform 5 (UniProt O43312), the log2 fold change in [4] was inactive: -0.194; in [8] it was inactive: 0.226; in experiment [10] it was inactive: 0.012; with vemurafenib, inactive: -0.024; in experiment [12], inactive: 0.086; in experiment [3], inactive: 0.284.
